PubChem BioAssay AID743454 | Peter MacCallum Cancer Centre | 2014
Test: 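Knock-downs lowering viability or raising caspase 3/7 activity in vorinostat-treated resistant cells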 (primary screen). Cells: human HCT116-VR colon cancer cells, selected for vorinostat resistance. Knock-down reagent: siRNA pool against human genes, 40 nM siRNA pool. Timing: vorinostat for 24 h, read-out about 72 h after transfection. Challenge: vorinostat at 2.5 µM final. Measurement: 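Two measures, CellTiter-Fluor viability and luminescent caspase 3/7 activity, each as fold change against same-plate mock wells, mean of duplicates, then screen-wide robust z-score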. Reading the numbers: viability robust z-score: higher = more viable cells than screen typical; caspase robust z-score: higher = more caspase 3/7 activity than screen typical. Call rule: 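Hits are knock-downs in viability class RV1/RV2 or caspase class CA1/CA2, excluding ones that killed cells in the no-drug cell-count arm; hits then retested with single siRNAs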.
Here is an unselected part of about 18,000 reagents tested. 450 of them (2.5%) count as active. 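Single biological run; no consistent viability z cut-off exists, so the class columns, not z-scores, define the calls.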

gene symbol	viability hit class	caspase hit class	viability robust z-score	caspase robust z-score	activity call
NAP1L2 (nucleosome assembly protein 1 like 2)	no change	no change	0.14	-0.36	inactive
ALG1L1P (ALG1 like 1, pseudogene)	no change	no change	0.28	-0.24	inactive
KRABD4 (KRAB domain containing 4)	no change	no change	1.35	-0.44	inactive
NCALD (neurocalcin delta)	no change	no change	0.89	-0.86	inactive
CFAP100 (cilia and flagella associated protein 100)	no change	no change	-0.26	2.77	inactive
HUS1B (HUS1 checkpoint clamp component B)	no change	no change	0.64	-0.86	inactive
TMEM52 (transmembrane protein 52)	no change	no change	-0.08	-0.42	inactive
TRIM13 (tripartite motif containing 13)	no change	no change	-0.11	-0.9	inactive
RBBP9 (RB binding protein 9, serine hydrolase)	RV2 (reduced viability)	no change	-4.2	3.32	active
MCHR1 (melanin concentrating hormone receptor 1)	no change	no change	-0.68	0.23	inactive
OR2A1 (olfactory receptor family 2 subfamily A member 1)	no change	no change	0.78	1.27	inactive
CAV2 (caveolin 2)	no change	no change	-0.42	1.42	inactive
MPZL3 (myelin protein zero like 3)	no change	no change	-0.36	0.74	inactive
MEX3D (mex-3 RNA binding family member D)	no change	no change	1.35	0.86	inactive
IP6K1 (inositol hexakisphosphate kinase 1)	no change	no change	0.7	0.1	inactive
IKBKE (inhibitor of nuclear factor kappa B kinase subunit epsilon)	no change	no change	-0.96	1.44	inactive
CARD8 (caspase recruitment domain family member 8)	no change	no change	-0.05	0.64	inactive
PPP6R2 (protein phosphatase 6 regulatory subunit 2)	no change	no change	-0.91	-0.73	inactive
MXRA7 (matrix remodeling associated 7)	no change	no change	0.38	-0.24	inactive
KRT9 (keratin 9)	no change	no change	0.68	1	inactive
KRTAP4-11 (keratin associated protein 4-11)	no change	no change	-0.77	3.33	inactive
CD177 (CD177 molecule)	no change	no change	-0.34	-0.84	inactive
AVIL (advillin)	no change	no change	1.52	0.32	inactive
BMP3 (bone morphogenetic protein 3)	no change	no change	1.24	-0.66	inactive
DEFB114 (defensin beta 114)	no change	no change	0.62	-0.09	inactive
ZNF569 (zinc finger protein 569)	no change	no change	1.36	-0.4	inactive
PEG10 (paternally expressed 10)	no change	no change	-0.07	-0.38	inactive
RPL37A (ribosomal protein L37a)	no change	no change	-4.63	-0.8	inactive
E2F4 (E2F transcription factor 4)	no change	no change	0.94	-0.76	inactive
NR1I3 (nuclear receptor subfamily 1 group I member 3)	no change	no change	0.2	-0.36	inactive
NDUFC2 (NADH:ubiquinone oxidoreductase subunit C2)	no change	no change	1.03	-0.77	inactive
CALCRL (calcitonin receptor like receptor)	no change	no change	0.81	-0.76	inactive
SLC9A2	no change	no change	-0.2	0.01	inactive
ARSL (arylsulfatase L)	no change	no change	0.84	0.32	inactive
DNAH3 (dynein axonemal heavy chain 3)	no change	no change	0.68	-0.84	inactive
PANK3 (pantothenate kinase 3)	no change	no change	0.54	-0.78	inactive
MAD2L1 (mitotic arrest deficient 2 like 1)	no change	no change	-1.5	2.36	inactive
EGR1 (early growth response 1)	no change	no change	0.78	1.12	inactive
TRIM25 (tripartite motif containing 25)	no change	no change	-0.94	1.08	inactive

Reformatted: 3 of the entries above.
| gene symbol | viability hit class | caspase hit class | viability robust z-score | caspase robust z-score | activity call |
| --- | --- | --- | --- | --- | --- |
| PEG10 (paternally expressed 10) | no change | no change | -0.07 | -0.38 | inactive |
| RPL37A (ribosomal protein L37a) | no change | no change | -4.63 | -0.8 | inactive |
| E2F4 (E2F transcription factor 4) | no change | no change | 0.94 | -0.76 | inactive |
